Measured values reported in the supplement of paper PMC10849652.
This is one part of the list.

Chains of the proteins cited; added tags and fusions are not shown. Lines headed by an entry give the natural chain unless they say otherwise; changes in a name come on top.
UniProt P50395: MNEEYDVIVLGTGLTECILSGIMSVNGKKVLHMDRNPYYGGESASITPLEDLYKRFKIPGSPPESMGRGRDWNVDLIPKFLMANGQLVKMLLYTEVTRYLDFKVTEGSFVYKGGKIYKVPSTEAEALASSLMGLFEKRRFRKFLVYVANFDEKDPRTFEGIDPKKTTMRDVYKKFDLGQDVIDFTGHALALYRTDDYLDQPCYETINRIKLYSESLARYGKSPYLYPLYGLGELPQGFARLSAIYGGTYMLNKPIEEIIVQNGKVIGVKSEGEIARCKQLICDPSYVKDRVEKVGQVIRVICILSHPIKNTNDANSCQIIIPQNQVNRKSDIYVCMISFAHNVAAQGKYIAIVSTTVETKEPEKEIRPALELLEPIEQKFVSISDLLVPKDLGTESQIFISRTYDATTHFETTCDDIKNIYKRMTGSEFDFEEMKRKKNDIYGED
UniProt Q96NB1: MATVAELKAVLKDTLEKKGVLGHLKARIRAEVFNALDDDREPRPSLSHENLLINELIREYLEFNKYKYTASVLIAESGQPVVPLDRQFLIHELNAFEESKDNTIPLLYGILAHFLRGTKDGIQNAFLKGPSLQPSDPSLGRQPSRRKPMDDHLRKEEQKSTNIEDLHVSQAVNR
UniProt P16383: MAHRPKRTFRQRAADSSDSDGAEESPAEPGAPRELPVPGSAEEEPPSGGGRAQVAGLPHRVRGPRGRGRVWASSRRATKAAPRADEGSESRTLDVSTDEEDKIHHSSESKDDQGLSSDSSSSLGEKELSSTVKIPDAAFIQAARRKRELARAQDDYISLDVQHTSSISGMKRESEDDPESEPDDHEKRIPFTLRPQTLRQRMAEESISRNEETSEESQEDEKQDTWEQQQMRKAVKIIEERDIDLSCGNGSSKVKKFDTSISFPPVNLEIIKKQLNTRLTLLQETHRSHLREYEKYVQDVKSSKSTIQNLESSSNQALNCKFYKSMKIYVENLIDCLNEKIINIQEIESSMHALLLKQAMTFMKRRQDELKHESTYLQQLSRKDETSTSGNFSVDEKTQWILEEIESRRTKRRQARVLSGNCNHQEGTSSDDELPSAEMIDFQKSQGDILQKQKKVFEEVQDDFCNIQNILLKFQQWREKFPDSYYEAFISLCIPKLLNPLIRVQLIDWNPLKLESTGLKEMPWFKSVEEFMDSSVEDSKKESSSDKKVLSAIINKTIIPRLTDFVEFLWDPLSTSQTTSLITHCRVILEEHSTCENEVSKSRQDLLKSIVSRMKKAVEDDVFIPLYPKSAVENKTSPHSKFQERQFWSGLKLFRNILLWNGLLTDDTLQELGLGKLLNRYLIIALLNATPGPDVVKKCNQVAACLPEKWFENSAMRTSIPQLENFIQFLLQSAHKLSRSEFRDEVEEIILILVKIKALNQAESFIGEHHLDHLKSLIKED
UniProt Q14697: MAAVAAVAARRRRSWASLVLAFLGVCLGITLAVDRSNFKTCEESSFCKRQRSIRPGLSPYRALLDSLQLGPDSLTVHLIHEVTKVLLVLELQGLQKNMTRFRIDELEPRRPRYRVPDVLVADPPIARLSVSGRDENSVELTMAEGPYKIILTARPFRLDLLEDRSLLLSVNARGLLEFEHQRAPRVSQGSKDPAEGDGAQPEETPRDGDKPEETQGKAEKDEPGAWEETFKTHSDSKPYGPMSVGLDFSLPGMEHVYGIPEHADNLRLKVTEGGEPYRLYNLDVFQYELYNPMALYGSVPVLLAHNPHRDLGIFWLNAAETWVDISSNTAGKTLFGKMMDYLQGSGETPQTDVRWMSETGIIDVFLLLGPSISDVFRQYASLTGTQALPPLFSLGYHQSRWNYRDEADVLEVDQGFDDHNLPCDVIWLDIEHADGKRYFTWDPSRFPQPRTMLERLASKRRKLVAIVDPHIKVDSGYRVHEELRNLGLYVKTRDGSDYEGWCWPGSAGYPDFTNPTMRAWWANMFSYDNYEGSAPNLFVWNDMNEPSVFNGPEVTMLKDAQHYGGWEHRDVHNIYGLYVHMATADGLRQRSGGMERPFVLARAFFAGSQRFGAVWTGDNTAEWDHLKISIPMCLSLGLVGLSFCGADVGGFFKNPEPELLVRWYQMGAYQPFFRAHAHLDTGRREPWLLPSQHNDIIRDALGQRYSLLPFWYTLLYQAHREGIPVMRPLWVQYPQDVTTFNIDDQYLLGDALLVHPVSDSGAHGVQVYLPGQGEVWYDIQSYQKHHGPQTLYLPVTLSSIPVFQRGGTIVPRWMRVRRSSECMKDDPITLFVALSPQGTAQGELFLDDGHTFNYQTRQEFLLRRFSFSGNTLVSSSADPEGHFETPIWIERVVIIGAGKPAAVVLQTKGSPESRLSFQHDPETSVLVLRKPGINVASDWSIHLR
UniProt Q8N4A0: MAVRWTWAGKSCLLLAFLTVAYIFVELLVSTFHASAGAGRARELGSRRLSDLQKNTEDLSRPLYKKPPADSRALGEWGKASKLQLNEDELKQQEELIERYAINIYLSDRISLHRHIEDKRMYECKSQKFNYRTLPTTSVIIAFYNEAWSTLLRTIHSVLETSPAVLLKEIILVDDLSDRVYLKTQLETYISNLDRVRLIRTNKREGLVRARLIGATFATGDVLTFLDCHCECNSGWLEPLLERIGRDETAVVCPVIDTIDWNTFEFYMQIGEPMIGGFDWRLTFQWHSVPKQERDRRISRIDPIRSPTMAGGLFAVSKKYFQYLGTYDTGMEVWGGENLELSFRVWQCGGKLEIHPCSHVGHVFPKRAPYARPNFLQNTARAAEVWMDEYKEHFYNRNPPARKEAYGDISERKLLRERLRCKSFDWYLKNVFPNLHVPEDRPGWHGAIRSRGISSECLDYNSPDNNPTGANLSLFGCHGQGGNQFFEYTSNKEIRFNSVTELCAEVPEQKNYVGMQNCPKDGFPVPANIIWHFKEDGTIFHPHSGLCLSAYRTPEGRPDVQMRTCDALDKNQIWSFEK
UniProt Q96C23: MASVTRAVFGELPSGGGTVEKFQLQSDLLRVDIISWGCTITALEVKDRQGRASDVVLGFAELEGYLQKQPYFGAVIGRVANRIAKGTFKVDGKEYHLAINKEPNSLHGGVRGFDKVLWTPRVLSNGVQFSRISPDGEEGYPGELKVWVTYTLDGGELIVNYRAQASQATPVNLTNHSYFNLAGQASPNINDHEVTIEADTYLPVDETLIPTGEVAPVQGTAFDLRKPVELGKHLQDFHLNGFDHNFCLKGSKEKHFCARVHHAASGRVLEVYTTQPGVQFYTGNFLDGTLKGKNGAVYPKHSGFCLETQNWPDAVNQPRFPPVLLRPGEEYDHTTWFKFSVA
UniProt P51116, whole entry, looked up: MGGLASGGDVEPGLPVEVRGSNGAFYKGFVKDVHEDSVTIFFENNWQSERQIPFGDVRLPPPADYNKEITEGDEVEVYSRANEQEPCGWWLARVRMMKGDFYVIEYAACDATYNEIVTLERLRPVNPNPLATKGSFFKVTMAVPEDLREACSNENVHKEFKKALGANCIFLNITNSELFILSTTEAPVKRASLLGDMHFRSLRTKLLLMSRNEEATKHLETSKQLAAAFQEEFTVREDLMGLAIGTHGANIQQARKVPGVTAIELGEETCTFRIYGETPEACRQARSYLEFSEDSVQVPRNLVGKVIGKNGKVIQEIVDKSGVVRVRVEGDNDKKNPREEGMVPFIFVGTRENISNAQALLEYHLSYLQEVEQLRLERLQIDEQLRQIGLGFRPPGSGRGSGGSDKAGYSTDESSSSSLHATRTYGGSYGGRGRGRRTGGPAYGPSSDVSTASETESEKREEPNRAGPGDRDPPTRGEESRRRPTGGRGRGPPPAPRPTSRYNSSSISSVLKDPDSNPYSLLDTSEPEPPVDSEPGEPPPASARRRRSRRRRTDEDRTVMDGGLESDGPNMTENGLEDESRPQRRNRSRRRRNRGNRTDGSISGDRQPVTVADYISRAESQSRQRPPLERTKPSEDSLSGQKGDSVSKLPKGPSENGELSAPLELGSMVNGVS
UniProt Q06210: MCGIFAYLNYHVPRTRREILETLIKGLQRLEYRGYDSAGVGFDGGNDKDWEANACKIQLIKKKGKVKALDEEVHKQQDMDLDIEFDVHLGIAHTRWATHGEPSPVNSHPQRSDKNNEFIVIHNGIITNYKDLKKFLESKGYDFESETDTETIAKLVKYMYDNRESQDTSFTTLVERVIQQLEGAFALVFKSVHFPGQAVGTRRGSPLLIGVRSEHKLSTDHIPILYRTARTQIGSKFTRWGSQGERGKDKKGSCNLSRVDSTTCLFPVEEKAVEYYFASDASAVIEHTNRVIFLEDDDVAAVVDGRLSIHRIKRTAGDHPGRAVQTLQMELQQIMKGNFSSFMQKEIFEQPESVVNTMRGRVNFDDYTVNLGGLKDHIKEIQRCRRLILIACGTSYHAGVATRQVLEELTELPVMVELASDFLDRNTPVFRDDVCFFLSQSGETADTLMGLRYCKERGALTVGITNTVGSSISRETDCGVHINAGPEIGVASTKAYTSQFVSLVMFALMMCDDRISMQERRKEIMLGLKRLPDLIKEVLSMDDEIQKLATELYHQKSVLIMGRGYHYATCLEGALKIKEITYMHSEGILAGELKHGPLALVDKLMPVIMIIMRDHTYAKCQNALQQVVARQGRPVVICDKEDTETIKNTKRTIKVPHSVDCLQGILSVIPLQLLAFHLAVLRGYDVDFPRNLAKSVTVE
UniProt Q13283, whole entry, looked up: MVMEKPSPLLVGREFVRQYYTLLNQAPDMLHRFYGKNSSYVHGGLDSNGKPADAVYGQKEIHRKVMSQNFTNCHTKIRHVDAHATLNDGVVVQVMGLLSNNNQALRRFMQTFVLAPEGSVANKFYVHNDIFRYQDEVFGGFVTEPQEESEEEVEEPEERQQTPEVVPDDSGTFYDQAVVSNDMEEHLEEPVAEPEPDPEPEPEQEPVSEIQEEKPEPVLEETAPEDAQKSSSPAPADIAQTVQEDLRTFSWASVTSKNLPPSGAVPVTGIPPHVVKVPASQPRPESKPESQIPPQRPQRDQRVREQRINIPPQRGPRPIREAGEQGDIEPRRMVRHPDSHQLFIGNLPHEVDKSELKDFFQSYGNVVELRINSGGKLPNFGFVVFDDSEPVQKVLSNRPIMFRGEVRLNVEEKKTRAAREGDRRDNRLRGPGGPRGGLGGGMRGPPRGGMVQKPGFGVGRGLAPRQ
UniProt Q9BYC5: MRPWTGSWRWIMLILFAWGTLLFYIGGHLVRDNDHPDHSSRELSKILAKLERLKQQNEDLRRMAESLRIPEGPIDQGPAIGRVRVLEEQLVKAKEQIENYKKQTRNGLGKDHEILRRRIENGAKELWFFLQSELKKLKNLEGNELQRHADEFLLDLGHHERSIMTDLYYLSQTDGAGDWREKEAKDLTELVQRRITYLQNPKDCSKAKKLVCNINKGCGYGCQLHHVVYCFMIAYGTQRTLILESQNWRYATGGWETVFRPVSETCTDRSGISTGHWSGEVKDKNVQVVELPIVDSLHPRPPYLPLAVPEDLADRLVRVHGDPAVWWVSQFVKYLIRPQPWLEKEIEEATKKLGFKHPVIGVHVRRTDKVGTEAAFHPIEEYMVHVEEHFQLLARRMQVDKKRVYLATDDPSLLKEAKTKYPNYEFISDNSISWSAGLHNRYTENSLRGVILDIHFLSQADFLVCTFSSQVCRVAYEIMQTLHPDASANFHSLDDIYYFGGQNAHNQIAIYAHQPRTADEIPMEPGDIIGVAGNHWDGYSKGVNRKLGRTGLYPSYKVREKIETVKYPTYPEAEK
UniProt Q9UET6: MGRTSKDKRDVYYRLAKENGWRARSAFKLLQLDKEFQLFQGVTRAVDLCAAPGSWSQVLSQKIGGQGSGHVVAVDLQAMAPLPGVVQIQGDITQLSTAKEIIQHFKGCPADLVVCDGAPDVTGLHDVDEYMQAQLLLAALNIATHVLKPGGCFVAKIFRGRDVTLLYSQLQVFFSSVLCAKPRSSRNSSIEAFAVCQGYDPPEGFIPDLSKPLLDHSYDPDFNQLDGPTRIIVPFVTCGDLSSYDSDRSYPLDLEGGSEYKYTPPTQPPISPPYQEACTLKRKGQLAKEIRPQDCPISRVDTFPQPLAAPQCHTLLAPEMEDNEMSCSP
UniProt P35637: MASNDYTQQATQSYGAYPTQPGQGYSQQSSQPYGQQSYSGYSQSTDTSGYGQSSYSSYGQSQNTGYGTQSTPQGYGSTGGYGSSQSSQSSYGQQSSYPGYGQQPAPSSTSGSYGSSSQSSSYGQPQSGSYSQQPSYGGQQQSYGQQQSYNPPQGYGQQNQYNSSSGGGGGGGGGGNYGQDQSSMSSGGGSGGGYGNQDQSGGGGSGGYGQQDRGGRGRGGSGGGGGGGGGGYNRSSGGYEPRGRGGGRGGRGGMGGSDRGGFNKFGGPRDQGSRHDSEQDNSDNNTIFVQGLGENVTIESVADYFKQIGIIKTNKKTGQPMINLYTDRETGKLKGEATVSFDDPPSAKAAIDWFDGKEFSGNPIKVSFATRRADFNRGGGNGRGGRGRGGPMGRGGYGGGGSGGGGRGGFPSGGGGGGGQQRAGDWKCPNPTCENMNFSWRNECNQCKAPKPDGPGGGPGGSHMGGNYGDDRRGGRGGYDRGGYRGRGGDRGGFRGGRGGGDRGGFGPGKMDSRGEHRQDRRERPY

Assays:
Test in all cases: log2 fold change, soluble protein after heating vs DMSO (PISA); higher = thermal stabilisation; K562 cells, 10 uM, 30 min; active = over 0.2 and 3.5 SD of the protein, either way, in both replicates (recomputed)
[1] = compound: C1=CC=C(C=C1)[C@H](COC2=CC3=C(C=C2)NC(=O)N3)NC(=O)C4=CC=CN(C4=O)CC5=CC(=C(C=C5)F)F
Method in brief: (§1)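 K562 cells at 2×10^6 cells/mL were treated for 30 min with 10 μM compound, and aliquots were heated for 3 min over 48°C-58°C before pooling. Extraction used PBS with 0.5% NP-40 at 4°C, and soluble protein was the supernatant after 21,000xg for 90 min, measured by TMTpro 16plex LC-MS/MS with channel sums equalised. Thermal stability values, relative to control samples and from duplicates, are log2 fold changes.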

[2] = compound: CC1=C(SC2=C1C(=N[C@H](C3=NN=C(N32)C)CC(=O)N)C4=CC=C(C=C4)Cl)C
Method in brief: as §1

[3] = compound: CC1=C2C(=CC=C1)N=C(N(C2=O)C3=CC=CC=C3C)CN4C=NC5=C(N=CN=C54)N
Method in brief: as §1

[4] = compound: Cc1sc2c(c1C)C(c1ccc(Cl)cc1)=N[C@@H](CC(=O)OC(C)(C)C)c1nnc(C)n1-2
Method in brief: as §1

[5] = compound: c1ccc([C@@H]2C[C@H]2NC2CCNCC2)cc1
Method in brief: as §1

Measured: log2 fold change

GALNS (UniProt P34059)
inactive: [1] -0.009 | [2] 0.018 | [3] 0.009 | [4] -0.049 | [5] -0.064

GID4 (UniProt Q8IVV7)
inactive: [1] -0.012 | [2] -0.021 | [3] 0.138 | [4] 0.048 | [5] 0.009

GALK1 isoform 2 (UniProt P51570)
inactive: [1] -0.02 | [2] 0.016 | [3] -0.065 | [4] -0.024 | [5] -0.007

GCSH (UniProt P23434)
inactive: [1] 0.029 | [2] -0.004 | [3] -0.043 | [4] 0 | [5] 0.043

FPGT (UniProt O14772)
inactive: [1] -0.027 | [2] 0.042 | [3] -0.047 | [4] -0.058 | [5] 0.004

GDI2 (UniProt P50395)
inactive: [1] -0.039 | [2] 0.029 | [3] 0.013 | [4] -0.029 | [5] -0.035

FOPNL (UniProt Q96NB1)
inactive: [1] 0.081 | [2] 0.105 | [3] 0.054 | [4] -0.02 | [5] 0.139

GGCT (UniProt O75223)
inactive: [1] -0.046 | [2] 0.027 | [3] 0.021 | [4] -0.01 | [5] -0.026

GCFC2 (UniProt P16383)
inactive: [1] -0.003 | [2] -0.077 | [3] 0 | [4] -0.027 | [5] 0.041

GDF15 (UniProt Q99988)
inactive: [1] 0.004 | [2] -0.062 | [3] 0.025 | [4] -0.022 | [5] 0.042

FUBP1 (UniProt Q96AE4)
inactive: [1] -0.039 | [2] -0.065 | [3] -0.179 | [4] -0.026 | [5] 0.032

FTL (UniProt P02792)
inactive: [1] -0.036 | [2] -0.068 | [3] -0.098 | [4] 0.172 | [5] 0.032

FRG1 (UniProt Q14331)
inactive: [1] -0.007 | [2] -0.09 | [3] -0.074 | [4] 0.136 | [5] 0.018

GCN1 (UniProt Q92616)
inactive: [1] 0.017 | [2] -0.282 | [3] -0.021 | [4] 0.219 | [5] -0.002

FNTB (UniProt P49356)
inactive: [1] -0.034 | [2] 0.401 | [3] -0.017 | [4] 0.269 | [5] -0.044

GANAB isoform 2 (UniProt Q14697)
inactive: [1] 0.032 | [2] 0.004 | [3] -0.011 | [4] -0.013 | [5] -0.009

GALC (UniProt P54803)
inactive: [1] 0.046 | [2] 0.055 | [3] 0.055 | [4] -0.043 | [5] 0.006

GALNT4 (UniProt Q8N4A0)
inactive: [1] 0.007 | [2] 0.062 | [3] 0.109 | [4] -0.033 | [5] -0.002

GAR1 (UniProt Q9NY12)
inactive: [1] 0.047 | [2] -0.139 | [3] -0.137 | [4] 0.147 | [5] 0

GALM (UniProt Q96C23)
inactive: [1] 0.051 | [2] 0.076 | [3] 0.062 | [4] -0.026 | [5] -0.029

GET4 (UniProt Q7L5D6)
inactive: [1] 0.008 | [2] 0.003 | [3] 0.054 | [4] 0.014 | [5] -0.068

GALNT12 (UniProt Q8IXK2)
inactive: [1] -0.062 | [2] 0.08 | [3] -0.021 | [4] 0.021 | [5] -0.047

GABPA (UniProt Q06546)
inactive: [1] -0.001 | [2] 0.005 | [3] 0.149 | [4] -0.01 | [5] -0.041

FXR2 (UniProt P51116)
inactive: [1] 0.148 | [2] -0.168 | [3] -0.151 | [4] 0.231 | [5] 0.109

GAN (UniProt Q9H2C0)
inactive: [1] -0.052 | [2] 0.1 | [3] 0.04 | [4] 0.001 | [5] 0.008

GALK2 (UniProt Q01415)
inactive: [1] -0.007 | [2] 0.041 | [3] 0.04 | [4] -0.031 | [5] -0.013

GFPT1 (UniProt Q06210)
inactive: [1] 0.02 | [2] 0.032 | [3] 0.003 | [4] 0.004 | [5] -0.018

FNTA (UniProt P49354)
inactive: [1] -0.009 | [2] -0.024 | [3] 0.02 | [4] 0.04 | [5] -0.009

GAB1 isoform 2 (UniProt Q13480)
inactive: [1] -0.019 | [2] -0.024 | [3] -0.065 | [4] 0.09 | [5] 0.007

Quoted from the listing (2 entries):
GALK1 isoform 2 (UniProt P51570)
inactive: [1] -0.02 | [2] 0.016 | [3] -0.065 | [4] -0.024 | [5] -0.007

GCSH (UniProt P23434)
inactive: [1] 0.029 | [2] -0.004 | [3] -0.043 | [4] 0 | [5] 0.043

Next entries

GEMIN5 (UniProt Q8TEQ6)
inactive: [1] -0.004 | [2] -0.019 | [3] 0.022 | [4] 0.021 | [5] 0.005

G6PD isoform 2 (UniProt P11413)
inactive: [1] -0.05 | [2] 0.045 | [3] 0.019 | [4] -0.024 | [5] -0.065

GBA2 (UniProt Q9HCG7)
inactive: [1] 0.099 | [2] 0.012 | [3] 0.017 | [4] 0.034 | [5] 0.023

G3BP1 (UniProt Q13283)
inactive: [1] 0.074 | [2] -0.101 | [3] -0.125 | [4] 0.193 | [5] 0

FUT8 (UniProt Q9BYC5)
inactive: [1] 0 | [2] 0.068 | [3] -0.06 | [4] -0.168 | [5] 0.049

GALNT1 (UniProt Q10472)
inactive: [1] -0.034 | [2] 0.069 | [3] -0.002 | [4] -0.01 | [5] -0.007

FUBP1 isoform 2 (UniProt Q96AE4)
inactive: [1] 0.013 | [2] -0.023 | [3] 0.001 | [4] -0.001 | [5] 0.015

GAPDH (UniProt P04406)
inactive: [1] 0.031 | [2] 0.02 | [3] -0.036 | [4] -0.009 | [5] -0.011

GHITM (UniProt Q9H3K2)
inactive: [1] 0.021 | [2] 0.017 | [3] -0.013 | [4] -0.024 | [5] 0.016

GGPS1 (UniProt O95749)
inactive: [1] -0.01 | [2] -0.024 | [3] 0.024 | [4] 0.019 | [5] 0.028

GFER (UniProt P55789)
inactive: [1] -0.062 | [2] 0.04 | [3] -0.005 | [4] -0.031 | [5] 0.025

Pulled one by one from above, 2 records:
GAPDH (UniProt P04406)
inactive: [1] 0.031 | [2] 0.02 | [3] -0.036 | [4] -0.009 | [5] -0.011

GFER (UniProt P55789)
inactive: [1] -0.062 | [2] 0.04 | [3] -0.005 | [4] -0.031 | [5] 0.025

(cont.)

GCDH (UniProt Q92947)
inactive: [1] 0.021 | [2] 0.012 | [3] 0.036 | [4] -0.043 | [5] -0.019

GEMIN4 (UniProt P57678)
inactive: [1] 0.222 | [2] -0.379 | [3] -0.403 | [4] 0.174 | [5] -0.003

G3BP2 (UniProt Q9UN86)
inactive: [1] 0.058 | [2] -0.262 | [3] -0.256 | [4] 0.257 | [5] 0.042

FRMPD3 (UniProt Q5JV73)
inactive: [1] 0.081 | [2] -0.04 | [3] 0.356 | [4] 0.078 | [5] 0.053

GAMT (UniProt Q14353)
inactive: [1] -0.03 | [2] 0.065 | [3] 0.037 | [4] -0.127 | [5] -0.071

GGH (UniProt Q92820)
inactive: [1] 0.028 | [2] -0.029 | [3] -0.056 | [4] -0.029 | [5] 0.054

GATAD2A isoform 3 (UniProt Q86YP4)
inactive: [1] -0.043 | [2] -0.006 | [3] 0.059 | [4] 0.056 | [5] -0.003

GEMIN6 (UniProt Q8WXD5)
inactive: [1] 0.027 | [2] -0.111 | [3] -0.053 | [4] -0.113 | [5] -0.063

FTSJ1 (UniProt Q9UET6)
inactive: [1] -0.033 | [2] 0.06 | [3] 0.024 | [4] -0.016 | [5] -0.035

FUS (UniProt P35637)
inactive: [1] 0.047 | [2] -0.098 | [3] -0.205 | [4] 0.11 | [5] 0.096

GFM1 (UniProt Q96RP9)
inactive: [1] -0.068 | [2] 0.099 | [3] 0.122 | [4] -0.011 | [5] -0.03

GALE (UniProt Q14376)
inactive: [1] 0.024 | [2] 0.035 | [3] 0.038 | [4] -0.03 | [5] -0.02

FUCA1 (UniProt P04066)
inactive: [1] -0.001 | [2] 0.058 | [3] 0.03 | [4] 0.018 | [5] 0.053
